Values of other authors as cited in patent US11291640B2, “Endoxifen for the treatment of bipolar I disorder” (Jina Pharmaceuticals, Inc., priority 2020, dated 2022).
For at least one compound, name, drawing or mass did not settle the structure.

Test system: individuals with bipolar disorder
Conditions: treated periods compared with untreated periods; followed from 2005 to 2013; cited from earlier work

## CCCC(CCC)C(=O)O [valproate]
  decrease of incidence rate of suicide-related events during treatment: not during valproate treatment
